Laboratory results published in publication PMC3251601.
These are yes or no findings as the source states them, for the method shown. Binding seen in cells or lysates may run through a third protein. Some results given as binding are weak or reduced against the parent protein; the word gives no strength.

By UniProt entry, the sequences of proteins in these tests, tags left out.
UniProt P04792: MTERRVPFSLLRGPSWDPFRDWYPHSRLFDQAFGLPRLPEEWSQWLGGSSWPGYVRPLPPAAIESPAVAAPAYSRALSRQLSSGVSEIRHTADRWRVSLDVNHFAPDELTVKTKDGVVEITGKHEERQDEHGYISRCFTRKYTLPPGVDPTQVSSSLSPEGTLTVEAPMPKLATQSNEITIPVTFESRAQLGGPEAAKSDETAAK
UniProt Q9UBN7: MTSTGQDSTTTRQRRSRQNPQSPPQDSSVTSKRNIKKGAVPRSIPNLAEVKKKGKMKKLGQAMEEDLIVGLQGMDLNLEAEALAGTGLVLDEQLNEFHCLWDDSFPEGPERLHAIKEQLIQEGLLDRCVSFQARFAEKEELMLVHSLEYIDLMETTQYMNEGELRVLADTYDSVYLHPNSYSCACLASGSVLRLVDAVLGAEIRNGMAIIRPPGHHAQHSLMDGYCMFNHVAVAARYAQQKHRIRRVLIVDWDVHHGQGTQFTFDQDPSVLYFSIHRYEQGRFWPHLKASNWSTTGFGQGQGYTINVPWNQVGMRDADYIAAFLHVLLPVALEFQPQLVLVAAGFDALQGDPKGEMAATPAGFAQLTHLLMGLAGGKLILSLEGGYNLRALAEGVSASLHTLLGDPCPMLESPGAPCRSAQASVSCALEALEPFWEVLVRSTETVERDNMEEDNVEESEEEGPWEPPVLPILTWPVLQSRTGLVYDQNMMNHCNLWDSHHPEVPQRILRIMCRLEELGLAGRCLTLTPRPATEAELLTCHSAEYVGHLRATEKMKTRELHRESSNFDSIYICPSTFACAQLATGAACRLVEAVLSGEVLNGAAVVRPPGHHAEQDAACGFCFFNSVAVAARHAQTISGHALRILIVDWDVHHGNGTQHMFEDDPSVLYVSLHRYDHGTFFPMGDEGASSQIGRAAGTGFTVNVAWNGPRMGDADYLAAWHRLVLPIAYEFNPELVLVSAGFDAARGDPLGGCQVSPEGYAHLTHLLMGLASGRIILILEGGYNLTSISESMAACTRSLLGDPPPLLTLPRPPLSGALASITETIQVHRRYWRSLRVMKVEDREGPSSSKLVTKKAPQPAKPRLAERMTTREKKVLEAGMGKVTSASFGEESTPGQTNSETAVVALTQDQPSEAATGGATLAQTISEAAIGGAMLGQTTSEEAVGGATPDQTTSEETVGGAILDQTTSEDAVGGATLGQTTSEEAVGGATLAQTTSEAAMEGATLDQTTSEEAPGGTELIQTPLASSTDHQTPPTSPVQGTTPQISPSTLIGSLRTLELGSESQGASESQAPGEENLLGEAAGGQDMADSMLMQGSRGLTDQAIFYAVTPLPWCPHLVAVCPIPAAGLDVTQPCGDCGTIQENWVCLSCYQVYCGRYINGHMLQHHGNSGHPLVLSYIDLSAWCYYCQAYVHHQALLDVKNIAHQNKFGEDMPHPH
UniProt P52630: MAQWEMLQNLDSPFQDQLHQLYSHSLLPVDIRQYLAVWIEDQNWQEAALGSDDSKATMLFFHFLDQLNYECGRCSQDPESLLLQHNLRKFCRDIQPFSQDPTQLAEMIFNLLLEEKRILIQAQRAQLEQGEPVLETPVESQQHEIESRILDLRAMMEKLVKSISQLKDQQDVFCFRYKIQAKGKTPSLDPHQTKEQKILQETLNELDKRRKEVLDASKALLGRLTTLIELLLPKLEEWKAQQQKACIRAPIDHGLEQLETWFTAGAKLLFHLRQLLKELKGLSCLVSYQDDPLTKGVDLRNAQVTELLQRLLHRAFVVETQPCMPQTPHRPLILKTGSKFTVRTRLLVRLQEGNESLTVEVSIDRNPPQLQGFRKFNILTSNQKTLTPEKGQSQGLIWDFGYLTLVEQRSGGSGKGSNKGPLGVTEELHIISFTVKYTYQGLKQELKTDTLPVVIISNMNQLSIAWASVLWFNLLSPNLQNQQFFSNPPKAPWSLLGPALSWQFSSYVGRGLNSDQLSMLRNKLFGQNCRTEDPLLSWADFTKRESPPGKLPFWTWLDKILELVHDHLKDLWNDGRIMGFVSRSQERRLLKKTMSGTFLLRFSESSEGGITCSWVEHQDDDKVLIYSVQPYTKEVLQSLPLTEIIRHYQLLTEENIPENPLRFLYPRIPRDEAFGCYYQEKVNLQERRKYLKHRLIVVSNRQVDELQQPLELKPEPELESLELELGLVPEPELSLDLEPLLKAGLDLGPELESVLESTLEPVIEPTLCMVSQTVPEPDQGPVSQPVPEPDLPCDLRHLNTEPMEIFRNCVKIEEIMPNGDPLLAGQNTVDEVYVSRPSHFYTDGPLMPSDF

Target: Heat shock protein 27 (Hsp27) (human (endogenous in HeLa)) (UniProt P04792)
Assay: co-IP; goat polyclonal anti-Hsp27 antibody (1 h, 4°C) then protein G sepharose, on 2 ml of pooled sepharose CL-6B column fractions of HeLa lysate positive for the tested protein; immunoblot of the eluate

binding | Substance
binds | histone deacetylase 6 (HDAC6) (from UniProt Q9UBN7 1-1215)
binds | signal transducer and activator of transcription 2 (STAT2) (from UniProt P52630 1-851)
